Series [1] can be described thus: Inhibition of sodium channel (unknown origin). Set-up: species or system Homo sapiens.
Series [2] relates to HepG2. As to the kind of experiment: Mitotoxicity in human HepG2 cells measured after 24 hrs by Glu/Gal assay. It is filed as toxicity, cell-based. As to conditions: hepg2, 24 h.
The test system of series [3] is HepG2. In words: Cytotoxicity against human HepG2 cells assessed as reduction in cellular ATP production measured after 72 hrs. The class given is functional.
A short description of series [4]: Inhibition of sigma receptor in guinea pig brain membrane incubated for 30 mins by scintillation counting based radiometry assay. The class given is cell membranes, Cavia porcellus, Cell membrane.

Turning to `O=c1[nH]cc(CSc2ccc(C(F)F)cc2)[nH]c1=O`, the IC50 in series [1] and in series [4] was greater than 10 µM each time. Also, the Activity with HepG2 [2] and with HepG2 [3] was greater than 100 µM each time.

In general, IC50 refers to the concentration needed to halve the response being measured. High values mean lower potency, low ones higher potency.

The values are drawn from ChEMBL document CHEMBL5154896, “Discovery of a Novel Class of d-Amino Acid Oxidase Inhibitors Using the Schrödinger Computational Platform” (J Med Chem, 2022).
